# In the supplement of paper PMC10338343:
# ± gives the standard deviation. The entries are a selection whose mix differs from that of the whole data set. Many of these values have a large error.
# Test system: MIWI (PIWIL1) piRISC loaded with piRNA #2 (30 nt)
# Assay: pre-steady-state target cleavage rate (min^-1); MIWI and MILI are mouse PIWI proteins and EfPiwi is from a freshwater sponge; tags in brackets are library labels; higher = faster piRNA-guided slicing of the target
# Conditions: guide: piRNA #2 5'p-UUAGGUAACCCAGUAGAUCCAGAGGAAUUC; auxiliary factor: 500 nM mouse GTSF1
# Procedure, shortened: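 The pre-steady-state cleavage rate was derived from a burst-and-steady-state fit of Cleave-'n-Seq data. For these assays, 1 nM active affinity-purified piRISC loaded with a single synthetic guide was mixed with […] a transcribed, DNA-blocked target RNA library in HEPES–potassium acetate buffer at 33 °C, with or without 500 nM GTSF1 partner protein, for 0–8 or 0–960 min. Sequencing counts of uncleaved targets were normalised to depth and to weakly complementary targets, and k3 was capped at 0.0001 min^-1 after three trials were pooled.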
# 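Further: 1 nM active piRISC with 0.1 nM target library at 33 °C single turnover.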
row,Sequence,pre-steady-state target cleavage rate
1,CUUAAGGAGAGGAUCUACUGGGUUAUCUAA,0.00226 ± 0.007
2,CUUAAGGAGACGAUCUUGUGGGUUACCUAA,0.000449 ± 0.013
3,CUUAAGGAGACGAUCUACUGGGUUACCUUA,0.0022 ± 0.0035
4,CUUAAGGAGACCUACUACUGGGUUACCAUA,0.00137 ± 0.0047
5,CUUAAGGAGACCUAGAUGACCGUUACGUAA,0.000616 ± 0.011
6,CAAUUCCUCUGGAUCUACUCGGGUUACCUAA,0.00331 ± 0.0048
7,CUUAAGGAGUGUGAUCUACUGGGUUACCUAA,0.00553 ± 0.0085
8,CUUAAGGAGACCUAGUACUGGGUACCUAA,0.000585 ± 0.0079
9,CUUAAGGAGACCUACUACUGGGUUACCUAA [g2:g16:cont:t1A],0.00332 ± 0.0035
10,CUUAAGGACUGGAUCUUCUGGGUUACCAAA,0.0039 ± 0.013
11,CUUAAGGAGACCUAGAUCUAGGGUUACCUAA,0.00116 ± 0.008
12,CUUAAGGAGACCAUCAACUGGGAUACCUAA,0.000202 ± 0.035
13,CUUAAGGAGACCUACUACUGGCUUACCUAA,0.00198 ± 0.0034
14,CUUAAGGAGACCUACUACUGGCUUACCAAA,0.00152 ± 0.0036
15,CUUAAGGAGACCUACAACUGGGUUAGCUAA,0.000227 ± 0.027
16,CUUAAGGAGACCAUCUACUCGCUUACCUAA,0.000431 ± 0.006
17,CUUAAGGAGACCAUCUAGACGGUUACCUAA,0.000676 ± 0.011
18,CUUAAGGUCUGCAACUACUGGGUUACCUAA,0.0166 ± 0.017
19,CUUAAGGAGACCUAGUUCAGGGUUACCUAA,0.000651 ± 0.0099
20,CUUAAGGAGACGUUCUACUGCGUUACCUAA,0.00118 ± 0.0028
21,GAAUUCCUCUGGAUGUACUGGGUUACCUAA,0.352 ± 0.045
22,CUUAAGGAGACCUUGUAGUGGGUUACCUAA,0.00039 ± 0.016
23,CUUAAGGAGACCUUCUGACUGGGUUACCUAA,0.000103 ± 0.049
24,CUUUUCCUCUGGAUCUACUGAGUUACCUAA,0.727 ± 0.048

# Given tab-delimited: entries from further up
row	Sequence	pre-steady-state target cleavage rate
4	CUUAAGGAGACCUACUACUGGGUUACCAUA	0.00137 ± 0.0047
5	CUUAAGGAGACCUAGAUGACCGUUACGUAA	0.000616 ± 0.011
6	CAAUUCCUCUGGAUCUACUCGGGUUACCUAA	0.00331 ± 0.0048
7	CUUAAGGAGUGUGAUCUACUGGGUUACCUAA	0.00553 ± 0.0085
8	CUUAAGGAGACCUAGUACUGGGUACCUAA	0.000585 ± 0.0079

# Further records.

row,Sequence,pre-steady-state target cleavage rate
1,CUUUUCCUCUGGAUCUACUGGGUUACGUUA,0.374 ± 0.044
2,CUUAACCUGCUGGAUCUACUGGGUUACCUAA,0.356 ± 0.036
3,CUUAAGGAGACGAUCUACCGGGUUACCUAA,0.00125 ± 0.0099
4,CUUAAGGAGUGGAUCUUCUGGGAUACCUAA,0.000223 ± 0.039
5,CUUAAGGAGACCUAGUACUGGGAUACCUAA,0.000239 ± 0.025
6,CUUAAGGAGACCAUCCACUGGGUUACCUAA,0.00203 ± 0.0086
7,CUUAAGGAGUGGAUCUACUAGGGUUACCUAA,0.000585 ± 0.015
8,CUUAAGGAGACGAUCUACAGGGAUACCUAA,0.000719 ± 0.0098
9,CUUAAGGAGACCAUCUACUGGGGUUACCUAA,0.0013 ± 0.0078
10,CUUAAGGAGACCUUCUACUAGGUUACCUAA,0.00152 ± 0.0065
11,CUUAAGGAGACCAUCUAUUGGGUUACCUAA,0.00302 ± 0.0054
12,CUAUUCCUCUGGUUCUACUGGGUAACCUAA,0.156 ± 0.033
13,CAAUUCCUCUCGAUCUUCUGGGUUACCUAA,0.737 ± 0.059
14,CUUAAGGUCUGGAUCUACUGGUGUUACCUAA,0.000159 ± 0.029
15,CUUAAGGAGACCUAGAAUCUGGGUUACCUAA,0.000556 ± 0.013
16,CUAUUCCUCUGGAUCUACUGGGUUUCCUAA,0.344 ± 0.053
17,CUUAAGGAGUGGAUCUAGUGGGAUACCUAA,0.000308 ± 0.019
18,GUAUUCCUCUGGAUCUACUGGGUUACGUAA,0.377 ± 0.057
19,CUUAAGGAGACCUAGUACUGGGGUUACCUAA,0.000418 ± 0.017
20,CUUAAGGACUGGAUCUACUGGGAAUCCUAA,0.0011 ± 0.023
21,CUUAAGCUCUGGAUCUCACUGGGUUACCUAA,0.000262 ± 0.031
22,CUUAAGGAGACCUACUACUGGGUUAGCCUAA,0.00185 ± 0.0067
23,CUUAAGGAGACCUACAACUGCGUUACCUAA,0.00266 ± 0.0034
24,CUAUUCCUCUGGAUCUAGACGGUUACCUAA,0.000265 ± 0.026

row,Sequence,pre-steady-state target cleavage rate
1,CUUAAGGAGACCUACUACUGGGUUAUCUAA,0.00246 ± 0.0047
2,CUUAAGGAGACCUAGUCUGGGUUACCUAA,0.00132 ± 0.0055
3,CUUAAGGAGACCUACUACUGGGAAACCUAA,0.00101 ± 0.0062
4,CUUAAGGACUGGAUCUUCUGGGAUACCUAA,0.00469 ± 0.011
5,GUAUUCCUCAGGAUCUACUGGGUUACCUAA,0.0863 ± 0.033
6,CUUAAGGAGACGAUCUACUGGGCUACCUAA,0.00133 ± 0.0087
7,CUUAAGGAGACGAUCUUCUGGGUUACGUAA,0.00237 ± 0.003
8,CUUAAGGAGACCAUUACUGGGUUACCUAA,0.0026 ± 0.0045
9,CUUAAGGAGACCUACACUGGGUUACCUAA,0.000759 ± 0.011
10,CUUAAGGAGACCAUCUACAGGGUAACCUAA,0.00126 ± 0.0076
11,CUUAAGGAGACCAUCUACUGGGAAACCUAA,0.000846 ± 0.011
12,CUUAAGGAGACCUAGAUGACGGUUACAUAA,0.000349 ± 0.015
13,CUAUUCCUCGGAUCUACUGGGUUACCUAA,0.447 ± 0.083
14,CUUAAGGAGACCAUCUACUGGGUUACCUCAA,0.00151 ± 0.0051
15,CUUAAGGAGAGGAUCUACUGGGUUCCUAA,0.000891 ± 0.0084
16,CUUAAGGAGUGGAUCUACUCGGUUACCUUA,0.00449 ± 0.007
17,CUUAAGGAGACGAUCAACUGGGUUUCCUAA,0.00101 ± 0.01
18,CUUAAGGACUGGAUCUAGAGGGUUACCUAA,0.00162 ± 0.0062
19,CUUAAGGAGACCUAGUACUGGGUUAGCUAA,0.000319 ± 0.014
20,CUUAAGCUCUGGAUCUACUGGUGUUACCUAA,0.000581 ± 0.017
21,CUUAAGGUCUGGAUCUACAUGGGUUACCUAA,0.000481 ± 0.013
22,CUUAAGGAGACGAUCUUCUGGGUUACCUUA,0.00136 ± 0.0049
23,CUUAACCUCUGGAUCUACUGCGGUUACCUAA,0.0011 ± 0.0057
24,CUUAAGGAGAGCAUCUACUCGGUUACCUAA,0.000848 ± 0.0052
